The other results are listed elsewhere or left out.
Compound: CN(C)CC(=O)Nc1ccc2[nH]c(=O)c3ccccc3c2c1
Test: log2 fold change, soluble protein after heating vs DMSO (PISA); higher = thermal stabilisation; K562 cells, 10 uM, 30 min; active = over 0.2 and 3.5 SD of the protein, either way, in both replicates (recomputed)
Outline: (§1)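 Values are thermal stability changes relative to control samples and are taken from duplicates. They are stated as log2 fold changes. Before quantification by TMTpro 16plex LC-MS/MS with equalised channel sums, K562 cells at 2×10^6 cells/mL were treated with 10 μM compound for 30 min, heated in aliquots for 3 min across 48°C-58°C, pooled, extracted in PBS with 0.5% NP-40 at 4°C, and centrifuged at 21,000xg for 90 min to give the soluble supernatant.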

Amino acid sequences for entries named in this document (tags omitted). A change or cut given only in a name is not applied to a line headed by its entry.
UniProt Q9BVX2: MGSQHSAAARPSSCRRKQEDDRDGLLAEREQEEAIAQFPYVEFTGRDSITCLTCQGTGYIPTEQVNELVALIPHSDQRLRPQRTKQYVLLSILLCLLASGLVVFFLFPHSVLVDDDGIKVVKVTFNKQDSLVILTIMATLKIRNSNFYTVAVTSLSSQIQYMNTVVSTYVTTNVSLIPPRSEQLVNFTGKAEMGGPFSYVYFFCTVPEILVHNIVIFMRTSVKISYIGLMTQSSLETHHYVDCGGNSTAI
UniProt Q8NCS4: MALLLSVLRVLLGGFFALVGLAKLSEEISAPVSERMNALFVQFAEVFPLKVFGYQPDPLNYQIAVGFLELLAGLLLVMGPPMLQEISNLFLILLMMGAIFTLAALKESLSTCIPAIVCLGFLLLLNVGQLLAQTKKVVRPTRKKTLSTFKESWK
UniProt O95807: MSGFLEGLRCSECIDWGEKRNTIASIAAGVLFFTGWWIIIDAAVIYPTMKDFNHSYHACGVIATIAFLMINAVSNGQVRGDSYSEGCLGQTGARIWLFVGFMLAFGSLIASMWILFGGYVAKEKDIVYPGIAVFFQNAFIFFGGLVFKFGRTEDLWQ
UniProt Q9NVA4: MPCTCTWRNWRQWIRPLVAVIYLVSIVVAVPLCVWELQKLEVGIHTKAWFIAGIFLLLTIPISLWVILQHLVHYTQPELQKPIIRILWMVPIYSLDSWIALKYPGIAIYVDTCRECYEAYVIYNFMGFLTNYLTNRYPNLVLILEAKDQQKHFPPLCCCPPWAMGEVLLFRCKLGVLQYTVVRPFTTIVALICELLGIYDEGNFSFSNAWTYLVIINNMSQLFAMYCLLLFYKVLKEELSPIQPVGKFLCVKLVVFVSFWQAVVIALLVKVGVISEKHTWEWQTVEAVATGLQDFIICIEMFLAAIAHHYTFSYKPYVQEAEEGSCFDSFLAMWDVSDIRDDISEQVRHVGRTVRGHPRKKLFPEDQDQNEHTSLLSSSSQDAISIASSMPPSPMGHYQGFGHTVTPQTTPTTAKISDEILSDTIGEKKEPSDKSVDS
UniProt O76062: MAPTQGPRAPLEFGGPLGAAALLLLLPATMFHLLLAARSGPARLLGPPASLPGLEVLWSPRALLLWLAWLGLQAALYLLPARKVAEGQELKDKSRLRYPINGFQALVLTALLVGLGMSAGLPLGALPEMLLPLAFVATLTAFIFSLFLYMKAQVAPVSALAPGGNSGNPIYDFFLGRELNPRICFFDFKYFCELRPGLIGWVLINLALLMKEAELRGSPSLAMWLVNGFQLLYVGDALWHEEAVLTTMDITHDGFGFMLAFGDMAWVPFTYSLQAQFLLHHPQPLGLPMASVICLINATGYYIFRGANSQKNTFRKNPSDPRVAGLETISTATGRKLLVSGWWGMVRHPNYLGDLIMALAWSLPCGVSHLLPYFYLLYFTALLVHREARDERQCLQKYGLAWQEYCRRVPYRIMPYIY
UniProt Q86XT9, whole entry, looked up: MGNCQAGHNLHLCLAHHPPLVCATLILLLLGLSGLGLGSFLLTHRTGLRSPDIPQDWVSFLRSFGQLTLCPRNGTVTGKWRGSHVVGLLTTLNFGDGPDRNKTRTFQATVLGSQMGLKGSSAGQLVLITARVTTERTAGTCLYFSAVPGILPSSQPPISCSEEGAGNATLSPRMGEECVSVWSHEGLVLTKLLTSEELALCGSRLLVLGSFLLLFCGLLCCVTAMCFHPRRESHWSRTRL
UniProt Q9BVK8: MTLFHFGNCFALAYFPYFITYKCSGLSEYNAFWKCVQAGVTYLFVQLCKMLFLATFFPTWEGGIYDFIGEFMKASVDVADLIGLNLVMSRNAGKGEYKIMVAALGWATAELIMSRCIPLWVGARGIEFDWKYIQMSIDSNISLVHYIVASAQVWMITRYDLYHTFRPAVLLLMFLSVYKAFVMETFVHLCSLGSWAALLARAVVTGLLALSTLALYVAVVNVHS
UniProt Q9NR96: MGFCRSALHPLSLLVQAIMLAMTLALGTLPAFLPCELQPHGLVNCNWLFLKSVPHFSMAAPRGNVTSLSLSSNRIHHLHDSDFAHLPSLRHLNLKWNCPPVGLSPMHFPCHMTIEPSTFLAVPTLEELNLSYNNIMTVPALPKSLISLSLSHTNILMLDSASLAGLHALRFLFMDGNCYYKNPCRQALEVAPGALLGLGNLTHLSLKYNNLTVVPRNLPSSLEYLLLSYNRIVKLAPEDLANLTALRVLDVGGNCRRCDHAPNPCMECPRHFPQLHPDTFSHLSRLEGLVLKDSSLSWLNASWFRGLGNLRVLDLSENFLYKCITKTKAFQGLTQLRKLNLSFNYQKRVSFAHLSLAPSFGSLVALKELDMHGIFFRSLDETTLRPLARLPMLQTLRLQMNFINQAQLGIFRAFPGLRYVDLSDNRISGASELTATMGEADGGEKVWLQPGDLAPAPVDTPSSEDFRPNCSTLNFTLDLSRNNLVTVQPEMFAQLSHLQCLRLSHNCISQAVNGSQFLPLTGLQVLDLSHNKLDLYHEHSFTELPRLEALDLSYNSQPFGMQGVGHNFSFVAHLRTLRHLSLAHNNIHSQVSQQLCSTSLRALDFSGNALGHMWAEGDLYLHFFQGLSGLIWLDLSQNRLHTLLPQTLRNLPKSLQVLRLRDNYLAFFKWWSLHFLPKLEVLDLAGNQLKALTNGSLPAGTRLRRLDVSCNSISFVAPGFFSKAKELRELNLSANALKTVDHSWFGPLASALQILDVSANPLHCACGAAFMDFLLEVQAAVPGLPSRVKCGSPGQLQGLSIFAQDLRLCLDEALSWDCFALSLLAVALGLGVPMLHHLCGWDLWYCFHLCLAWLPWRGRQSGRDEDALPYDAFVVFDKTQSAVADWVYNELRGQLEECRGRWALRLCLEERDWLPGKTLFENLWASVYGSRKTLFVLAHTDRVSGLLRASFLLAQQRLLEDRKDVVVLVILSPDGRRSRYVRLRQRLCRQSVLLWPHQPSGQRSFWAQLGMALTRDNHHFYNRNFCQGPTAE
UniProt Q9Y519: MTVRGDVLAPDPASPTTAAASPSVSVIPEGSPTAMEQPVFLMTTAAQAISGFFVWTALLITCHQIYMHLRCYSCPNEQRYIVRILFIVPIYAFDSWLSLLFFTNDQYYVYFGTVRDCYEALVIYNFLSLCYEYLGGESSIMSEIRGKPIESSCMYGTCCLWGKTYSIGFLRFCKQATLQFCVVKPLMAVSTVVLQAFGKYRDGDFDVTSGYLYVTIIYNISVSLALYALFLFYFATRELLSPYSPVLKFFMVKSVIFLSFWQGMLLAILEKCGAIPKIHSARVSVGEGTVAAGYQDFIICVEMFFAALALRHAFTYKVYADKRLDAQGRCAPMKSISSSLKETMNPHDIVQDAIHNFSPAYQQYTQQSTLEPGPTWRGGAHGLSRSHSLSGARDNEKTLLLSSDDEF
UniProt Q9BSE2: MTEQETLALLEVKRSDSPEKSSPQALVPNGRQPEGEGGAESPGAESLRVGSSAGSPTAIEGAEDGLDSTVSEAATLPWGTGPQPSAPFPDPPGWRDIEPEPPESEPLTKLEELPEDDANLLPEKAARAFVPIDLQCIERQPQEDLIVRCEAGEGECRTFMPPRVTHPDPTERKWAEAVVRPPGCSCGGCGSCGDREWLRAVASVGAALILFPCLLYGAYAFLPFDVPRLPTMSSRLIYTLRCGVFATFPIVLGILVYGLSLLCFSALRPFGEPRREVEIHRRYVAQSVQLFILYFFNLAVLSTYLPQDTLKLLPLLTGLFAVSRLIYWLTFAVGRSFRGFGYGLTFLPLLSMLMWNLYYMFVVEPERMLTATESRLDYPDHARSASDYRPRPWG
UniProt Q9Y2Y6: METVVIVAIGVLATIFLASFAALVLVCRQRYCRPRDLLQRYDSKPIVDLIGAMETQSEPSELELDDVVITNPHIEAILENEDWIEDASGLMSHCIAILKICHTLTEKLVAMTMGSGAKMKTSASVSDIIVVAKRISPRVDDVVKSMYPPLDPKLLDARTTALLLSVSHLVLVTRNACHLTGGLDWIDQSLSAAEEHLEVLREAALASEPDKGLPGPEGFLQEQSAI
UniProt Q5T4D3: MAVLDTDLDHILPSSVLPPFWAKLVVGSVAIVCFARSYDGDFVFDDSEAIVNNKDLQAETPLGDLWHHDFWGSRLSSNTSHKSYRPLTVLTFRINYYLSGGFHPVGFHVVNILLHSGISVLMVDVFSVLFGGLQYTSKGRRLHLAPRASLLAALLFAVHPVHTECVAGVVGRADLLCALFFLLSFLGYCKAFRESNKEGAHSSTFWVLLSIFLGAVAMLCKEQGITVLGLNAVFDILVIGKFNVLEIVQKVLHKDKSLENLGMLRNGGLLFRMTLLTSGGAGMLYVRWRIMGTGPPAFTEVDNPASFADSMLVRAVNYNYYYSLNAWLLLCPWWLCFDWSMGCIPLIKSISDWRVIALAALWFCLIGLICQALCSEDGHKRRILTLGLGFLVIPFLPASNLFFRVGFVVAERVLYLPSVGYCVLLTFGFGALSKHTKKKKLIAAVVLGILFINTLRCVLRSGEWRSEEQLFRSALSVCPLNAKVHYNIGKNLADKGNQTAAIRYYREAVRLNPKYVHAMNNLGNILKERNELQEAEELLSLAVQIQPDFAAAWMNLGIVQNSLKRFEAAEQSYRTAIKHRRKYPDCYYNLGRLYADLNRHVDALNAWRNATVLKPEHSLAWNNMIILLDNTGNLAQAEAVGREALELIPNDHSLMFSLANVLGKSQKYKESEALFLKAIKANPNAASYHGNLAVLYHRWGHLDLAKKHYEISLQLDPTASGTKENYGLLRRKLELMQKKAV
UniProt Q5SNT2: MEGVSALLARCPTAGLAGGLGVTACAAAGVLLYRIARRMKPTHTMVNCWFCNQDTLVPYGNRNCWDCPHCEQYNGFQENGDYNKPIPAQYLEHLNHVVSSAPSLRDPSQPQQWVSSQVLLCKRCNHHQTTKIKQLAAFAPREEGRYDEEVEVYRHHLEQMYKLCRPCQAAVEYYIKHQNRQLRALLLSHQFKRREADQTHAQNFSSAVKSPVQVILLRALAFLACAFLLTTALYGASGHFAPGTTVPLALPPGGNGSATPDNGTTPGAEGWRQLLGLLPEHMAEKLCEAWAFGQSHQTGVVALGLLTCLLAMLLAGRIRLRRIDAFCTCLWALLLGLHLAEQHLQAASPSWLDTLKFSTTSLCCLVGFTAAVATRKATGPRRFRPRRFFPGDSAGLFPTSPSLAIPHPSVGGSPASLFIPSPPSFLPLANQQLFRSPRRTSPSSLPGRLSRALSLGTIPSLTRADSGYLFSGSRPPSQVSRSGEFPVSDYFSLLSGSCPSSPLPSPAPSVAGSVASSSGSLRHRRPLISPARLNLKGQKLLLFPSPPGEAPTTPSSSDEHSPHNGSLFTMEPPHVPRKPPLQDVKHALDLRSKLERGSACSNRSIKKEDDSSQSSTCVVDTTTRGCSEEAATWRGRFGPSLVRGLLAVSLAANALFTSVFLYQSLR
UniProt Q96DC7: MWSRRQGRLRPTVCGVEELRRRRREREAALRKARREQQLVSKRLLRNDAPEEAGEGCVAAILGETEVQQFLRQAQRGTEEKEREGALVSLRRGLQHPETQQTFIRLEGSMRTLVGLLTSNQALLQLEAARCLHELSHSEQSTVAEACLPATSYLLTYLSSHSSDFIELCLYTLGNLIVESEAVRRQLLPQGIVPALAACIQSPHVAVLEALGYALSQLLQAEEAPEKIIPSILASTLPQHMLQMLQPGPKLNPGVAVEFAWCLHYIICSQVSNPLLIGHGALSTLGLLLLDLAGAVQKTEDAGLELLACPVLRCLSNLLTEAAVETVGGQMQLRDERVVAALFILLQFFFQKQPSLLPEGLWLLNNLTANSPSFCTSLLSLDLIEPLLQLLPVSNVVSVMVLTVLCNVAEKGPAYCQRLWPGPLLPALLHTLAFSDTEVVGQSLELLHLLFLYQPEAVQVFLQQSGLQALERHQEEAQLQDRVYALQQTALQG
UniProt Q9NX78: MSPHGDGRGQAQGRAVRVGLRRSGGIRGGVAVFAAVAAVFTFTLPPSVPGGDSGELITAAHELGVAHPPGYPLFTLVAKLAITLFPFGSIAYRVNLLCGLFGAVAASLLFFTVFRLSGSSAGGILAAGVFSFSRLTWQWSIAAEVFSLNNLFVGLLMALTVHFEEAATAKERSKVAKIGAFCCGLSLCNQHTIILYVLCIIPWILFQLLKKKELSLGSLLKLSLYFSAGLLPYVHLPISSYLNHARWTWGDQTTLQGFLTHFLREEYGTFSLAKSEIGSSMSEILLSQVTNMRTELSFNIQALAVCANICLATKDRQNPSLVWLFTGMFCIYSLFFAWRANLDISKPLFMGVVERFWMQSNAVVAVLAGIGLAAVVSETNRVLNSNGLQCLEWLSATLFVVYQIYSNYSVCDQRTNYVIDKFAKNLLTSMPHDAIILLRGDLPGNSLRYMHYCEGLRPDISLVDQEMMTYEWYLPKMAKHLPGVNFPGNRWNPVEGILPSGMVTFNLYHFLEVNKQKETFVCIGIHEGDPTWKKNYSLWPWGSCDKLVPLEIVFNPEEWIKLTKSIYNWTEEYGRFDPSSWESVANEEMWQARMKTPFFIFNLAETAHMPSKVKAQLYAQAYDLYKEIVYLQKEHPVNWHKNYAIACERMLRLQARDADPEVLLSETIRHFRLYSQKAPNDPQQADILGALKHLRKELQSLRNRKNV

log2 fold change, inactive:
TNFAIP3 (UniProt P21580) -0.039, TMEM106C (UniProt Q9BVX2) -0.189, TMEM35B (UniProt Q8NCS4) 0.068, TMEM50A (UniProt O95807) -0.032, TMEM184C (UniProt Q9NVA4) -0.013, TM7SF2 (UniProt O76062) -0.435, TMCO3 (UniProt Q6UWJ1) 0.104, TMEM237 isoform 3 (UniProt Q96Q45) 0.105, TMEM219 (UniProt Q86XT9) 0.094, TMEM273 isoform 2 (UniProt Q5T292) -0.086, TMEM120B (UniProt A0PK00) 0.075, TMEM147 (UniProt Q9BVK8) 0.292, TM6SF1 (UniProt Q9BZW5) 0.011, TLR9 isoform 4 (UniProt Q9NR96) -0.013

Compound: CN(CCOC1=CC=C(C=C1)C[C@H]2C(=O)NC(=O)S2)C3=CC=CC=N3 (racemic) [rosiglitazone]
Test: as above
Outline: as §1

log2 fold change, inactive:
TNFAIP3 (UniProt P21580) 0.017, TMEM106C (UniProt Q9BVX2) 0.071, TMEM35B (UniProt Q8NCS4) 0.108, TMEM50A (UniProt O95807) 0.144, TMEM184B (UniProt Q9Y519) 0.013, TMCC3 (UniProt Q9ULS5) -0.001, TMEM134 (UniProt Q9H6X4) 0.226, TMEM79 (UniProt Q9BSE2) -0.009, TMEM98 (UniProt Q9Y2Y6) -0.081, TMEM147 (UniProt Q9BVK8) 0.083, TMTC4 isoform 3 (UniProt Q5T4D3) -0.025, TNFAIP2 (UniProt Q03169) 0.043, TMEM201 (UniProt Q5SNT2) 0.083, TLR9 isoform 4 (UniProt Q9NR96) -0.019, TMEM159 isoform 2 (UniProt Q96B96) 0.017

Compound: CN1C2=C(C3=C1C(=O)N(N=C3)CC4=CC(=CC=C4)N)SC(=C2)S(=O)C
Test: as above
Outline: as §1

log2 fold change, inactive:
TMEM129 -0.076, TMEM106C (UniProt Q9BVX2) 0.084, TNFRSF1A (UniProt P19438) 0.227, TMEM35B (UniProt Q8NCS4) 0.006, TMCO6 isoform 2 (UniProt Q96DC7) -0.049, TMEM184C (UniProt Q9NVA4) -0.237, TM7SF2 (UniProt O76062) 0.031, TMCO3 (UniProt Q6UWJ1) 0.239, TMCC2 (UniProt O75069) -0.157, TMEM94 isoform 2 (UniProt Q12767) -0.023, TMEM219 (UniProt Q86XT9) -0.085, TM2D1 (UniProt Q9BX74) -0.022, TMEM120B (UniProt A0PK00) -0.136, TMEM147 (UniProt Q9BVK8) 0.031, TMTC4 isoform 3 (UniProt Q5T4D3) -0.108, TMEM59 (UniProt Q9BXS4) 0.001, TNFAIP2 (UniProt Q03169) 0.086, TMEM201 (UniProt Q5SNT2) 0.148, TM6SF1 (UniProt Q9BZW5) 0.043, TMCC1 (UniProt O94876) 0.167, TMEM260 (UniProt Q9NX78) 0.165, TLR9 isoform 4 (UniProt Q9NR96) -0.221, TMEM159 isoform 2 (UniProt Q96B96) -0.039
